## Percent effect of library compounds

The chains behind the UniProt entries cited, without tags or fusion partners.
UniProt P9WFT3, whole entry: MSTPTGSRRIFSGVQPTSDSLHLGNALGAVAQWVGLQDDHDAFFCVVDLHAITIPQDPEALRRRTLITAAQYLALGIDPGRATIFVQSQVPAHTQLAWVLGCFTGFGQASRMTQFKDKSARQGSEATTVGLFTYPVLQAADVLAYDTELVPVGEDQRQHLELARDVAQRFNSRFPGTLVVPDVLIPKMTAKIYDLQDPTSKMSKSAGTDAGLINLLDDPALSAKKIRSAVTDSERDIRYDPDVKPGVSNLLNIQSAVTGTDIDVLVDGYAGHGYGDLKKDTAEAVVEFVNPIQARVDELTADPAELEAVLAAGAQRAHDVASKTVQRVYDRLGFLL

Source: ChEMBL document CHEMBL3988442, “University of Dundee, Small-Polar-MMV Screening Library” (2021).

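Tryptophan-tRNA ligase, Mycobacterium tuberculosis (UniProt P9WFT3). Enzyme assay of tryptophanyl-tRNA synthetase; the read-out is not stated. Tested at 10 µM. Direction is not recorded; retested compounds ran higher, which suggests that high means inhibition. Size under these conditions: about 65,000 compounds, about 64 of them at 50% or above in at least one test.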

The filed quantity is “Percent Effect” (%).
The controls that fix the scale are not given in the record; negative values are as filed.
This is an unselected part of the compounds tested.

structure	Percent Effect
Cc1nc(C)c(CN2CCOC[C@H](Oc3ccc(S(C)(=O)=O)cc3)C2)s1	-6.784
COc1c(Br)cccc1CCNC(=O)c1ncoc1C	2.233
COc1ccccc1CN1C(=O)O[C@@H]2CN(CC3CC3)C[C@@H]21	-0.08489
CC(CO)NC(=O)Nc1ccc(CC#N)cc1 (configuration not stated)	-0.9046
Cc1cc(-c2nn(C)c(Cl)c2CN2CCC3(CC2)[C@H](O)C[C@@H]3O)no1	-4.131
O=C1OC2(CCNCC2)CN1CC(=O)N1CCCC1c1ccco1 (configuration not stated)	-5.341
CN1CCN(Cc2ccccc2CNC(=O)c2cc(Cl)ccc2F)CC1	-6.437
COC1COC2(CCN(Cc3ccc4ccccc4n3)CC2)C1 (configuration not stated)	-2.49
COc1cccc(CNCc2c(C(C)C)nn(C)c2N(C)C)c1OC	0.7862
COCC(=O)N1CCC(C(=O)Nc2ccc(S(N)(=O)=O)cc2)CC1	-2.205
CC(C(=O)N1CCCCCC1)N1CCN(Cc2nccn2C)CC1 (configuration not stated)	-1.394
Cc1ccc(N2CCCC(NCCS(C)(=O)=O)C2)nn1 (configuration not stated)	1.001
COc1ccc(Cc2noc(C3=NN(C)C(=O)CC3)n2)cc1OC	-1.165
CS(=O)(=O)NCCNC(=O)c1cnc(-c2ccccc2)nc1	-0.6157
CCC(C)NC(=O)c1nnn(-c2ccc(Br)cc2)n1 (configuration not stated)	-3.732
Cc1ccc(C(C)(O)CNC(=O)CCn2ccnc2C(C)C)o1 (configuration not stated)	-2.786
CN(CCC(F)(F)F)C(=O)c1nc(S(C)(=O)=O)n2ccccc12	11.5
COC(=O)C(CNC(=O)Nc1nncs1)Cc1cccc(C)c1 (configuration not stated)	-5.899
CCC(C)c1csc(NC(=O)c2sc(-c3nnc[nH]3)nc2C)n1 (configuration not stated)	-9.513
Cc1cc2nc(C(C)C)cc(NCCc3cccn3C)n2n1	2.136
CCn1cc(CN2CCCC2c2nc(C(C)C)no2)cc1C#N (configuration not stated)	-2.605
CCc1ccc(C2CCCCCN2Cc2nc(CCOC)no2)o1 (configuration not stated)	4.391
CCN(CC)Cc1cn2c(n1)CN(C(=O)c1cnccn1)CC2	0.959
O=C(C1CCOCC1)N1CCc2ncc(CN3CCCCC3)n2CC1	-0.6255
COc1c(C2CCCN2C(=O)c2ccc3[nH]cnc3c2)c(C)nn1C (configuration not stated)	5.392
Cn1cc(C(=O)N2CCCC(n3cccn3)C2)c2ccccc21 (configuration not stated)	1.605
CCSc1nnc(CCNC(=O)OC(C)(C)C)o1	-1.891
COC(=O)c1oc(CNC(C)(C)c2ccc3c(c2)OCO3)cc1C	0.1874
Cc1nc(CNC(=O)CC2C(=O)NCCN2CCC(C)C)n[nH]1 (configuration not stated)	0.7498
COCc1nc2nc(O)c3c(n2n1)NC(=O)CC3c1ccccc1Cl (configuration not stated)	-4.022
COc1cccc(S(=O)(=O)NC(=O)CC2CCCC2)c1	-0.5045
Cn1cc(NC(=O)c2cccc3cccnc23)ccc1=O	2.991
CC(Nc1cccc(CN2CCOC2=O)c1)C(=O)Nc1cccc(F)c1 (configuration not stated)	-6.283
O=S(=O)(NCCCn1cccn1)c1ccc2c(c1)CCC2	2.21
CC(C)(O)c1cc(CC2(NCc3ccco3)COC2)no1	-2.959
O=C(NCC1CC1)C1CN(C(=O)c2cccc(Cl)c2)CC12CCOCC2 (configuration not stated)	-2.536
CO[C@H]1CN(C(=O)c2ccc(-c3ccccc3)[nH]2)CC[C@H]1N	-2.662
CC(C)c1nc2n(n1)CC(NCc1nc(-c3cccnc3)no1)CC2 (configuration not stated)	1.798
CN(Cc1cc(=O)c(O)co1)C1CCN(c2ccc(F)cc2)CC1	16.81
Cc1ccc(CN2CCCC3(CCC(=O)N3)CC2)s1 (configuration not stated)	-3.961
CCOC(=O)N1CCN(c2nc(N)c3ccccc3n2)CC1	-7.385
COc1ccc(N2CCN(C(=O)CCn3nccc3C)CC2(C)C)cc1	6.186
Cc1nnc2n1CCN(C(=O)c1cc(C)n(-c3ccccc3)c1C)C2	-13.61
CN(C)CCN1CCCC12CCN(C(=O)c1cccnc1)CC2	-1.298
OC1COCCN(Cc2cc(-c3ccccc3OC(F)(F)F)no2)C1 (configuration not stated)	-3.127
CCCn1[nH]cc/c1=N\C(=O)CN1CCCC1Cn1cccn1 (configuration not stated)	0.6606
Cc1cc2[nH]c(O)nc2cc1NCc1ccccc1	5.791
CC(C)[C@H](NC(=O)c1cccc(CCC(C)(C)O)c1)C(N)=O	-5.355
CN(C)C(=O)N1C[C@@H](C(=O)NCc2ccco2)C[C@H]2OCC[C@H]21	-4.876
Cc1cccc2sc(NC(=O)CN3CCC(C)CC3)nc12	-1.451
c1ccc(N2CCC3(CCCN(c4ncccn4)C3)C2)nc1 (configuration not stated)	4.653
CO[C@@H]1CCN(C(=O)c2cnoc2C)[C@H]1Cc1ccccc1	-1.744
Cc1nn(C)cc1-c1cncn1CCc1ccc2c(c1)OCCO2	-3.03
C/C=C(\C)CN1CCCn2nc(CNC(=O)C3CCC3)cc2C1	0.2174
Cc1cc(C)n(C2CCCN(C(=O)CCNS(C)(=O)=O)C2)n1 (configuration not stated)	-3.996
O=C(Nc1cccnc1)C1CN(C(=O)c2ccc3c(c2)OCO3)C1	-0.2472
COCCOCCNC(=O)N1CCc2c(F)ccc(F)c2C1	-4.173
CCC(CC)C(O)CNC(=O)Nc1cc(C)nn1C (configuration not stated)	0.8655
Cn1ncc(N2CCOC(CCNC(=O)CO)C2)cc1=O (configuration not stated)	-0.2581
O=C(CCC1CCN(Cc2ncc[nH]2)CC1)Nc1ccccc1Cl	-0.5848
Cc1nccn1C1CCCN(C(=O)c2ccc3c(c2)COC3)C1 (configuration not stated)	-1.652
CN1CCC(c2cccc(-c3cccc(C(=O)O)c3)n2)CC1	1.015
CS(=O)(=O)c1ccc(CNC2CCCN(c3cccnn3)C2)cc1 (configuration not stated)	2.424

Repeated from the top, 7 entries:

{"structure": "Cc1nc(C)c(CN2CCOC[C@H](Oc3ccc(S(C)(=O)=O)cc3)C2)s1", "Percent Effect": -6.784}
{"structure": "COc1c(Br)cccc1CCNC(=O)c1ncoc1C", "Percent Effect": 2.233}
{"structure": "COc1ccccc1CN1C(=O)O[C@@H]2CN(CC3CC3)C[C@@H]21", "Percent Effect": -0.08489}
{"structure": "CC(CO)NC(=O)Nc1ccc(CC#N)cc1", "stereo": "configuration not stated", "Percent Effect": -0.9046}
{"structure": "Cc1cc(-c2nn(C)c(Cl)c2CN2CCC3(CC2)[C@H](O)C[C@@H]3O)no1", "Percent Effect": -4.131}
{"structure": "O=C1OC2(CCNCC2)CN1CC(=O)N1CCCC1c1ccco1", "stereo": "configuration not stated", "Percent Effect": -5.341}
{"structure": "CN1CCN(Cc2ccccc2CNC(=O)c2cc(Cl)ccc2F)CC1", "Percent Effect": -6.437}